{"source": "PubChem BioAssay AID686937 | Drosophila RNAi Screening Center | 2013", "aim": "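Genes whose loss weakens secretory pathway function in fly cells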 (primary screen)", "cell system": "Drosophila S2 cells expressing secreted horseradish peroxidase", "reagents": "long dsRNA against Drosophila genes", "duration": "about 5.5 days (5 days dsRNA, then 12 h reporter induction)", "challenge": "reporter expression induced after 5 days of dsRNA, read 12 h later; inducer not stated", "detection": "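Chemiluminescent measurement of peroxidase in the medium 12 h after reporter induction, following 5 days of dsRNA, given as a z-score per plate; higher means more secretion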", "reading the numbers": "z-score: higher = more reporter secreted into medium", "note": "The deposit covers about 23,000 reagents; shown is a random part of those with a known target gene and a result. 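Reduced-secretion tags in replicate 1 do not always agree with the z-scores; no criterion for assigning the tags was given.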 Names joined by + are all predicted targets of the reagent. Not all columns of the deposit are shown. Reagent sequences are not shown. The record does not give: the amount of reagent."}
{"gene knocked down":"Cyp1","amplicon":"DRSC20234","z-score, replicate 1":0.53}
{"gene knocked down":"for","amplicon":"DRSC00195","z-score, replicate 1":-0.63}
{"gene knocked down":"for","amplicon":"DRSC00818","z-score, replicate 1":0.51}
{"gene knocked down":"mtd","amplicon":"DRSC12131","z-score, replicate 1":0.5}
{"gene knocked down":"mtd","amplicon":"DRSC12380","z-score, replicate 1":0.58}
{"gene knocked down":"mtd","amplicon":"DRSC12381","z-score, replicate 1":0.38}
{"gene knocked down":"CG14323","amplicon":"DRSC14802","z-score, replicate 1":0.04}
{"gene knocked down":"SCCRO3","amplicon":"DRSC06359","z-score, replicate 1":0.26}
{"gene knocked down":"CG43329","amplicon":"DRSC11672","z-score, replicate 1":-0.18}
{"gene knocked down":"Klp67A + CG34456","amplicon":"DRSC10420","z-score, replicate 1":0.25}
{"gene knocked down":"CenB1A","amplicon":"DRSC16923","z-score, replicate 1":0.27}
{"gene knocked down":"CG32087","amplicon":"DRSC10806","z-score, replicate 1":0.11}
{"gene knocked down":"Spps","amplicon":"DRSC15856","z-score, replicate 1":0.39}
{"gene knocked down":"mRpS33","amplicon":"DRSC14239","z-score, replicate 1":-0.03}
{"gene knocked down":"CG5913","amplicon":"DRSC15916","z-score, replicate 1":0.18}
{"gene knocked down":"CG13197","amplicon":"DRSC06322","z-score, replicate 1":0.52}
{"gene knocked down":"CG10996","amplicon":"DRSC19363","z-score, replicate 1":0.31}
{"gene knocked down":"robl62A","amplicon":"DRSC08153","z-score, replicate 1":-0.25}
{"gene knocked down":"mino","amplicon":"DRSC14132","z-score, replicate 1":0.25}
{"gene knocked down":"Remo","amplicon":"DRSC19710","z-score, replicate 1":0.46}
{"gene knocked down":"Rap2l","amplicon":"DRSC04646","z-score, replicate 1":0.13}

A stretch taken from the entries so far, for reference:
{"gene knocked down":"CG14323","amplicon":"DRSC14802","z-score, replicate 1":0.04}
{"gene knocked down":"SCCRO3","amplicon":"DRSC06359","z-score, replicate 1":0.26}
{"gene knocked down":"CG43329","amplicon":"DRSC11672","z-score, replicate 1":-0.18}
{"gene knocked down":"Klp67A + CG34456","amplicon":"DRSC10420","z-score, replicate 1":0.25}

Additional records:
{"gene knocked down":"CG32452","amplicon":"DRSC11581","z-score, replicate 1":0.58}
{"gene knocked down":"CG32452","amplicon":"DRSC22250","z-score, replicate 1":-0.03}
{"gene knocked down":"CG11158","amplicon":"DRSC19389","z-score, replicate 1":0.08}
{"gene knocked down":"hpRNA:CR32207","amplicon":"DRSC09616","z-score, replicate 1":0.9}
{"gene knocked down":"CG3663","amplicon":"DRSC04402","z-score, replicate 1":0.11}
{"gene knocked down":"sisA","amplicon":"DRSC20374","z-score, replicate 1":0.27}
{"gene knocked down":"koi","amplicon":"DRSC04980","z-score, replicate 1":0.26}
{"gene knocked down":"koi","amplicon":"DRSC04991","z-score, replicate 1":0.33}
{"gene knocked down":"Ubi-p63E","amplicon":"DRSC22016","z-score, replicate 1":-0.62,"phenotype, replicate 1":"reduced secretion"}
{"gene knocked down":"Edg91","amplicon":"DRSC16657","z-score, replicate 1":-0.41}
{"gene knocked down":"PMP34","amplicon":"DRSC21939","z-score, replicate 1":0.28}
{"gene knocked down":"Wnt6","amplicon":"DRSC02795","z-score, replicate 1":0.51}
{"gene knocked down":"mthl13","amplicon":"DRSC05238","z-score, replicate 1":0.76}
{"gene knocked down":"CG15464 (retired record)","amplicon":"DRSC18047","z-score, replicate 1":-0.04}
{"gene knocked down":"CG15464 (retired record)","amplicon":"DRSC22086","z-score, replicate 1":0.16}
{"gene knocked down":"CG42322","amplicon":"DRSC15112","z-score, replicate 1":0.42}
{"gene knocked down":"CG42322","amplicon":"DRSC15113","z-score, replicate 1":0.1}
{"gene knocked down":"CG42322","amplicon":"DRSC15114","z-score, replicate 1":-1.54,"phenotype, replicate 1":"reduced secretion"}
{"gene knocked down":"CG33128","amplicon":"DRSC00294","z-score, replicate 1":0.11}
